Cleaved PARP after 72 h of treatment

Data from the primary screen of doi:10.1371/journal.pone.0140310, rounded.

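The test systems are human melanoma cell lines, treated with two drugs together for 72 h and then stained and imaged. Values are the share of nuclei positive for cleaved PARP as a percentage of the same share in the DMSO control: 100 is the control level, higher means more apoptosis. Every drug was used at one fixed concentration, the higher of two screened. The file gives one value for each pair and line, without errors, so small differences may be noise. The marker varies much from line to line, for technical or biological reasons.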
An unselected part of the screen is shown.
An entry leaves out what has no value listed here.
A dash means that no value is listed here.

Compounds and concentrations:
BMS-536924, 1000 nM: Cc1cc(N2CCOCC2)cc2[nH]c(-c3c(NC[C@@H](O)c4cccc(Cl)c4)cc[nH]c3=O)nc12
bexarotene, 10000 nM: C=C(c1ccc(C(=O)O)cc1)c1cc2c(cc1C)C(C)(C)CCC2(C)C
tozasertib, 30 nM: Cc1cc(Nc2cc(N3CCN(C)CC3)nc(Sc3ccc(NC(=O)C4CC4)cc3)n2)n[nH]1
AZD7762, 100 nM: NC(=O)Nc1cc(-c2cccc(F)c2)sc1C(=O)N[C@H]1CCCNC1
tanespimycin, 10 nM: C=CCNC1=C2C[C@@H](C)C[C@H](OC)[C@H](O)[C@@H](C)/C=C(\C)[C@H](OC(N)=O)[C@@H](OC)/C=C\C=C(/C)C(=O)NC(=CC1=O)C2=O
NVP-TAE684, 400 nM: COc1cc(N2CCC(N3CCN(C)CC3)CC2)ccc1Nc1ncc(Cl)c(Nc2ccccc2S(=O)(=O)C(C)C)n1
BI-78D3, 1000 nM: O=c1[nH]nc(Sc2ncc([N+](=O)[O-])s2)n1-c1ccc2c(c1)OCCO2
darinaparsin, 2000 nM: C[As](C)SC[C@H](NC(=O)CC[C@H](N)C(=O)O)C(=O)NCC(=O)O
GW0742, 10000 nM: Cc1cc(SCc2sc(-c3ccc(C(F)(F)F)c(F)c3)nc2C)ccc1OCC(=O)O
indole-3-carbinol, 4000 nM: OCc1c[nH]c2ccccc12

{"drugs": "indole-3-carbinol and darinaparsin", "LOX IMVI": 215, "A375": 117, "G-361": 64.2, "WM1716": 79.8, "MEL-HO": 95.0, "MeWo": 250}
{"drugs": "NVP-TAE684 and bexarotene", "LOX IMVI": 117, "A375": 108, "G-361": 210, "WM1716": 125, "MEL-HO": 178, "MeWo": 229}
{"drugs": "bexarotene and tanespimycin", "LOX IMVI": 66.9, "A375": 112, "G-361": 157, "WM1716": 127, "MEL-HO": 101, "MeWo": 143}
{"drugs": "AZD7762 and tozasertib", "LOX IMVI": 205, "G-361": 166, "WM1716": 363, "MEL-HO": 82.8, "MeWo": 74.4}
{"drugs": "bexarotene and BMS-536924", "LOX IMVI": 24.0, "G-361": 271, "WM1716": 110, "MEL-HO": 38.9, "MeWo": 66.6}
{"drugs": "tanespimycin and indole-3-carbinol", "LOX IMVI": 29.6, "A375": 81.3, "G-361": 185, "WM1716": 108, "MEL-HO": 131, "MeWo": 192}
{"drugs": "BI-78D3 and tanespimycin", "LOX IMVI": 60.3, "A375": 42.0, "G-361": 189, "WM1716": 77.4, "MEL-HO": 104, "MeWo": 173}
{"drugs": "tozasertib and BI-78D3", "LOX IMVI": 109, "A375": 52.6, "G-361": 103, "WM1716": 21.0, "MEL-HO": 80.1, "MeWo": 150}
{"drugs": "AZD7762 and tanespimycin", "LOX IMVI": 65.1, "G-361": 332, "WM1716": 539, "MEL-HO": 152, "MeWo": 539}
{"drugs": "BMS-536924 and tozasertib", "LOX IMVI": 348, "G-361": 129, "WM1716": 74.2, "MEL-HO": 82.1, "MeWo": 233}
{"drugs": "darinaparsin and GW0742", "LOX IMVI": 45.5, "A375": 67.9, "G-361": 118, "WM1716": 115, "MEL-HO": 41.2, "MeWo": 115}
{"drugs": "BMS-536924 and indole-3-carbinol", "LOX IMVI": 21.2, "G-361": 142, "WM1716": 89.1, "MEL-HO": 63.9, "MeWo": 117}
{"drugs": "tanespimycin and tozasertib", "LOX IMVI": 136, "A375": 71.8, "G-361": 111, "WM1716": 152, "MEL-HO": 160, "MeWo": 349}
{"drugs": "bexarotene and BI-78D3", "LOX IMVI": 132, "A375": 53.5, "G-361": 156, "WM1716": 125, "MEL-HO": 81.0, "MeWo": 71.6}
{"drugs": "GW0742 and BI-78D3", "LOX IMVI": 110, "A375": 116, "G-361": 81.8, "WM1716": 54.6, "MEL-HO": 65.6, "MeWo": 23.1}
{"drugs": "NVP-TAE684 and GW0742", "LOX IMVI": 51.5, "A375": 116, "G-361": 47.0, "WM1716": 59.7, "MEL-HO": 48.5, "MeWo": 70.7}
{"drugs": "AZD7762 and darinaparsin", "LOX IMVI": 30.8, "G-361": 95.0, "WM1716": 580, "MEL-HO": 84.6, "MeWo": 419}
{"drugs": "BI-78D3 and indole-3-carbinol", "LOX IMVI": 73.3, "A375": 56.9, "G-361": 35.9, "WM1716": 138, "MEL-HO": 111, "MeWo": 122}
{"drugs": "AZD7762 and BI-78D3", "LOX IMVI": 200, "G-361": 209, "WM1716": 289, "MEL-HO": 42.5, "MeWo": 207}
{"drugs": "NVP-TAE684 and darinaparsin", "LOX IMVI": 129, "A375": 512, "G-361": 105, "WM1716": 45.8, "MEL-HO": 27.0, "MeWo": 78.0}
{"drugs": "darinaparsin and tozasertib", "LOX IMVI": 95.5, "A375": 78.7, "G-361": 68.7, "WM1716": 76.1, "MEL-HO": 140, "MeWo": 128}
{"drugs": "bexarotene and GW0742", "LOX IMVI": 110, "A375": 62.4, "G-361": 142, "WM1716": 82.7, "MEL-HO": 46.1, "MeWo": 148}
{"drugs": "AZD7762 and GW0742", "LOX IMVI": 71.6, "A375": 331, "G-361": 78.8, "WM1716": 273, "MEL-HO": 44.5, "MeWo": 154}
{"drugs": "BMS-536924 and BI-78D3", "LOX IMVI": 179, "G-361": 99.2, "WM1716": 27.1, "MEL-HO": 69.7, "MeWo": 77.1}
{"drugs": "indole-3-carbinol and NVP-TAE684", "LOX IMVI": 178, "A375": 233, "G-361": 108, "WM1716": 143, "MEL-HO": 88.1, "MeWo": 152}
{"drugs": "AZD7762 and indole-3-carbinol", "LOX IMVI": 92.5, "G-361": 99.6, "WM1716": 159, "MEL-HO": 69.5, "MeWo": 253}
{"drugs": "darinaparsin and BMS-536924", "LOX IMVI": 200, "G-361": 166, "WM1716": 198, "MEL-HO": 86.9, "MeWo": 97.1}
{"drugs": "bexarotene and darinaparsin", "LOX IMVI": 12.1, "A375": 91.3, "G-361": 130, "WM1716": 59.7, "MEL-HO": 51.4, "MeWo": 104}
{"drugs": "tanespimycin and GW0742", "LOX IMVI": 61.4, "A375": 130, "G-361": 162, "WM1716": 148, "MEL-HO": 170, "MeWo": 108}
{"drugs": "NVP-TAE684 and BMS-536924", "LOX IMVI": 171, "A375": 131, "G-361": 267, "WM1716": 99.2, "MEL-HO": 203, "MeWo": 90.5}
{"drugs": "BMS-536924 and tanespimycin", "LOX IMVI": 294, "G-361": 148, "WM1716": 211, "MEL-HO": 308, "MeWo": 221}
{"drugs": "darinaparsin and BI-78D3", "LOX IMVI": 81.2, "A375": 110, "G-361": 102, "WM1716": 147, "MEL-HO": 194, "MeWo": 164}
{"drugs": "AZD7762 and BMS-536924", "LOX IMVI": 151, "G-361": 106, "WM1716": 415, "MEL-HO": 91.5, "MeWo": 357}

The last 2 entries again:

Drugs,LOX IMVI,A375,G-361,WM1716,MEL-HO,MeWo
darinaparsin and BI-78D3,81.2,110,102,147,194,164
AZD7762 and BMS-536924,151,-,106,415,91.5,357